Some of the results follow. This data set is noisy: repeats of one test often differ as much as different tests do.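 Human embryonic kidney cells were transiently transfected with a plasmid bearing a Renilla luciferase gene under the HSV-TK promoter. This first-round screen tests roughly ten thousand compounds for ones that increase reporter output.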

In this test the test system is HEK 293FT. In words: log relative Renilla luciferase luminescence (reporter expression vs reference, reference not stated) (log (base not stated)); higher = higher recombinant reporter expression. Conditions: 10 µM; time after transfection 48 h. The method, then:
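HEK 293FT cells transiently transfected with pRL-TK (Renilla luciferase) were treated with compounds at 10 uM and luminescence was read about 42 h later. Values are log relative Renilla luminescence (log base and reference not stated). Single-pass screen; 2080 natural products library.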
As to `COC(=O)[C@H]1[C@H]2C[C@@H]3c4[nH]c5ccccc5c4CCN3C[C@H]2CC[C@@H]1O` [Isorauhimbine], the log was -0.00447. Under `C[C@@H](C[C@@H](O)[C@@H]1OC1(C)C)[C@@H]1CC[C@]2(C)C3=CC[C@H]4C(C)(C)[C@@H](O)CC[C@]4(C)[C@H]3CC[C@@]12C` [Dihydroniloticin] stands -0.163.

With `CC(=O)N[C@@H](C)[C@H]1CC[C@@]2(C)[C@@H]3C=C[C@H]4C(C)(C)[C@@H](N(C)C)CC[C@@]45C[C@@]35CC[C@]12C` [Buxbodine D], the log came out at 0.012. On to `C=C(C)[C@H]1O[C@@H]1c1c(OC)ccc2ccc(=O)oc12` [Phebalosin], for which the log is -0.0776. Under `C[C@@H]1CN2[C@H]3[C@@H]1CC[C@]31CCC(=O)O[C@]1(C)[C@H]1CC[C@H]3CCC=C3[C@@H]12` [Deoxycalyciphylline B] stands 0.125. Under `COc1ccc(-c2cc(=O)c3c(O)c(OC)c(O)cc3o2)cc1` [Pectolinarigenin] stands -0.117; under `COc1ccc(-c2cc(=O)c3c(O)cc(O)c(-c4cc(-c5cc(=O)c6c(O)cc(OC)cc6o5)ccc4OC)c3o2)cc1` [Sciadopitysin], -0.466; under `C[C@@H]1CC[C@]2(C(=O)O)CC[C@]3(C)C(=CC[C@@H]4[C@@]5(C)C(CO)=CC(C)(C)[C@@H]5CC[C@]43C)[C@@H]2[C@]1(C)O` [Hyptadienic acid], -0.334. For the compound `C=C1CC[C@]2(C)CC[C@]3(C)[C@H](CC[C@@H]4[C@@]5(C)CC[C@H](O)C(C)(C)[C@@H]5CC[C@]43C)[C@H]2[C@@H]1C` [Taraxasterol], the log turned out to be 0.0568.
